The other results are listed elsewhere or left out. The main result of the screen is listed elsewhere. These columns were measured beside it and carry no call. Most of these compounds were active or inconclusive in the main read-out, so they are no random draw. The note in brackets gives the kind of curve behind each potency; many fits are weak.
Experiment: qHTS Assay for Lipid Storage Modulators in Drosophila S3 Cells;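 on cell number change: cells counted by Cell Tracker Red CMTPX staining in the red channel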
Conditions: BODIPY lipid droplet fluorescence, 18-24 h; for cell number change: measured here: cell count max response, cells fed with added oleic acid
Procedure, shortened: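 Laser-scanning cytometry quantifies lipid droplet accumulation (500–530 nm total intensity; droplet/cell object ratio) in oleic acid-fed (400 uM added) Drosophila S3 cells treated with a concentration series. 20 uM Triacsin C defined 100% inhibition.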

[1] = measured here: lipid fluorescence (Fed channel) AC50, cells fed with added oleic acid
[2] = measured here: cell number channel AC50, cells fed with added oleic acid

SMILES	cell number change [%]	AC50 [1]	AC50 [2]
Cc1cc(C(=O)CSc2nnc(-c3ccc(F)cc3)o2)c(C)n1CC1CCCO1 (stereo not given)	-28.2	29.1 µM [falling, single point]	–
O=C/C(=C\Nc1ccc(S(=O)(=O)CCO)cc1)c1nc2cc(Cl)ccc2o1	4.15	–	–
Nn1c(Nc2ccccc2)nc2sc3c(c2c1=O)CCC3	-26.1	0.164 µM [rising, full curve, poor fit]	–
CCCNC(=O)C1CCN(S(=O)(=O)c2ccc3[nH]c(=O)ccc3c2)CC1	0.288	1.84 µM [rising, partial curve]	–
CCC(C)(C)NC(=O)C(c1cccn1C)N(Cc1ccc(OC)cc1)C(=O)Cn1nnc2ccccc21 (stereo not given)	-34.5	8.2 µM [falling, partial curve]	8.2 µM [falling, partial curve]
CC(C)=C1C2CCC1C1C(=O)N(c3nc(-c4ccc(C(C)C)cc4)c(C)s3)C(=O)C21 (stereo not given)	-25.2	23.1 µM [falling, single point]	–
CC/C=C\C/C=C\C/C=C\CCCCCCCC(=O)O	-31.4	–	29.1 µM [falling, single point]
Cc1cccc(CSc2nnc(CCCCCNC(=O)OC(C)(C)C)o2)c1	16.6	29.1 µM [rising, single point]	–
CCc1ccc(NCc2nc3ccccc3c(=O)[nH]2)cc1	47.5	3.66 µM [rising, single point]	5.8 µM [rising, full curve]
COc1ccc(OC)c(CNS(=O)(=O)c2cn(C)cn2)c1	-16.7	29.1 µM [rising, single point]	–
CCc1cccc(NC(=O)COc2ccccc2)c1	–	–	3.26 µM [falling, partial curve]
COc1ccccc1NC(=O)N1CCN(C)CC1	39.4	–	32.6 µM [rising, single point]
CCN(CC)C(=O)c1ccc(-c2nnc(OC)c3ccccc23)cc1	22.9	3.66 µM [rising, full curve]	1.84 µM [rising, partial curve, poor fit]
O=S(=O)(c1c(Cl)sc(Cl)c1Br)N1CCCC1	-50.3	–	–
O=[N+]([O-])c1ccccc1NC1CCN(Cc2ccccc2)CC1	-2.33	0.164 µM [falling, full curve, poor fit]	–
O=[N+]([O-])c1cc(-c2ncccn2)c([N+](=O)[O-])s1	-80	20.6 µM [falling, single point]	25.9 µM [falling, single point]
COc1ccc(OC)c(/C=N/NC(=O)Cn2ccnc2C)c1	28.6	16.4 µM [rising, partial curve, poor fit]	–

An excerpt from above in order of SMILES length, falling.
SMILES	cell number change [%]	AC50 [1]	AC50 [2]
CCC(C)(C)NC(=O)C(c1cccn1C)N(Cc1ccc(OC)cc1)C(=O)Cn1nnc2ccccc21 (stereo not given)	-34.5	8.2 µM [falling, partial curve]	8.2 µM [falling, partial curve]
Cc1cc(C(=O)CSc2nnc(-c3ccc(F)cc3)o2)c(C)n1CC1CCCO1 (stereo not given)	-28.2	29.1 µM [falling, single point]	–
Cc1cccc(CSc2nnc(CCCCCNC(=O)OC(C)(C)C)o2)c1	16.6	29.1 µM [rising, single point]	–

Reference: PubChem BioAssay AID2685 (National Center for Advancing Translational Sciences (NCATS), 2010)
